Tested on: metastatic castration-resistant prostate cancer (mCRPC) with DNA-repair anomalies
Details: over time, BRCA and non-BRCA groups; 300 mg once daily
Protocol: The planned sample size was approximately 120 subjects with measurable disease who were biomarker-positive (approximately 75 subjects with DNA repair anomalies in BRCA [BRCA1 or BRCA2] and approximately 45 subjects with biallelic DNA-repair anomalies in non-BRCA [ATM, FANCA, PALB2, CHEK2, BRIP1, or HDAC2]).
Efficacy objectives were evaluated for subjects meeting the biomarker selection criteria described in the protocol. All subjects were monitored for safety during the study period, and up to 30 days after the last dose of study drug. Treatment continued until disease progression, unacceptable toxicity, death, or termination of the study by the sponsor. […]
The primary endpoint was ORR and summarized for the BRCA analysis set along with the 95% 2-sided exact CI. […] ORR in non-BRCA subjects was analyzed in the same way.
Descriptive summaries of CTC response were generated for BRCA and non-BRCA analysis sets, measurable and non-measurable subgroups and tabulated with its 2-sided 95% exact CI. […] All time to event secondary endpoints were evaluated using Kaplan-Meier method for BRCA and non-BRCA analysis sets. […]
Time to degradation was determined using the following meaningful change threshold values: FACT-P Total (10-point reduction from baseline), EQ-5D-5L Index (0.09-point reduction from baseline). […]

NC(=O)c1cccc2cn(-c3ccc([C@@H]4CCCNC4)cc3)nc12 [Niraparib, 2-[4-[(3S)-piperidin-3-yl]phenyl]-2H-indazole-7-carboxamide]
FACT-P, and EQ-5D-5L VAS and Index scores (patient-reported outcomes): stable over time

Source: patent US20240325369A1 (priority 2021, published 2024)
